Values from PubChem BioAssay AID743121 (NCATS, 2013).

- Purpose: 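Knock-downs that sensitise breast cancer cells to camptothecin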 (primary screen)
- Cell system: MDA-MB-231 cells, a human breast cancer line
- Knock-down reagent: single siRNA against human genes, 20 nM siRNA (0.8 pmol per well)
- Duration: 120 h (drug added 48 h after transfection, read 72 h later)
- Challenge: camptothecin 20 nM (about EC30) for 72 h; vehicle 0.1% DMSO in parallel plates
- Detection: 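Cell viability by ATP luminescence (CellTiter-Glo) as % of non-targeting siRNA wells, and the log2 ratio of viability without drug over viability with camptothecin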
- Scale: log2 vehicle/camptothecin viability: higher = stronger sensitisation to camptothecin; viability with camptothecin: higher = more viable cells
- Units: viability with camptothecin in % of control
- Active means: 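Active genes have an RSA gene-level p-value below 0.001, computed from the ratios of their separate siRNAs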
The whole screen tested about 26,000 reagents; shown is a part drawn at random. Over the whole deposit, 167 (0.63%) got an active call. 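Calls are per gene from RSA p-values that are not deposited; an individual active-marked siRNA can sensitise only weakly.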 Reagents against one gene are numbered here. Further read-outs or replicates are left out here.

CENPB #1 — log2 vehicle/camptothecin viability: -0.208; viability with camptothecin: 74.9; call: inactive
CENPB #2 — log2 vehicle/camptothecin viability: -0.171; viability with camptothecin: 103; call: inactive
CENPB #3 — log2 vehicle/camptothecin viability: 0.00534; viability with camptothecin: 69.4; call: inactive
CENPB #4 — log2 vehicle/camptothecin viability: -0.011; viability with camptothecin: 102; call: inactive
RASGRP4 #1 — log2 vehicle/camptothecin viability: 0.0362; viability with camptothecin: 93.6; call: inactive
RASGRP4 #2 — log2 vehicle/camptothecin viability: 0.14; viability with camptothecin: 59.5; call: inactive
RASGRP4 #3 — log2 vehicle/camptothecin viability: 0.0119; viability with camptothecin: 57.2; call: inactive
RASGRP4 #4 — log2 vehicle/camptothecin viability: -0.409; viability with camptothecin: 86; call: inactive
ANKRD30A #1 — log2 vehicle/camptothecin viability: -0.478; viability with camptothecin: 44.6; call: inactive
ANKRD30A #2 — log2 vehicle/camptothecin viability: -0.177; viability with camptothecin: 115; call: inactive
ANKRD30A #3 — log2 vehicle/camptothecin viability: 0.272; viability with camptothecin: 67.2; call: inactive
ANKRD30A #4 — log2 vehicle/camptothecin viability: -0.375; viability with camptothecin: 61.7; call: inactive
CCL23 #1 — log2 vehicle/camptothecin viability: -0.64; viability with camptothecin: 124; call: inactive
CCL23 #2 — log2 vehicle/camptothecin viability: -0.0347; viability with camptothecin: 78.1; call: inactive
CCL23 #3 — log2 vehicle/camptothecin viability: -0.105; viability with camptothecin: 90.3; call: inactive
PLK4 #1 — log2 vehicle/camptothecin viability: -0.403; viability with camptothecin: 61.7; call: inactive
PLK4 #2 — log2 vehicle/camptothecin viability: -0.233; viability with camptothecin: 87.4; call: inactive
PLK4 #3 — log2 vehicle/camptothecin viability: -0.252; viability with camptothecin: 81.5; call: inactive
PLK4 #4 — log2 vehicle/camptothecin viability: -0.536; viability with camptothecin: 92.6; call: inactive
PAQR5 #1 — log2 vehicle/camptothecin viability: 0.134; viability with camptothecin: 59.3; call: inactive
PAQR5 #2 — log2 vehicle/camptothecin viability: 0.232; viability with camptothecin: 94.2; call: inactive
PAQR5 #3 — log2 vehicle/camptothecin viability: -0.0824; viability with camptothecin: 81.7; call: inactive
LAT #1 — log2 vehicle/camptothecin viability: -0.589; viability with camptothecin: 85; call: inactive
LAT #2 — log2 vehicle/camptothecin viability: -0.339; viability with camptothecin: 77.9; call: inactive
LAT #3 — log2 vehicle/camptothecin viability: -0.168; viability with camptothecin: 120; call: inactive
LAT #4 — log2 vehicle/camptothecin viability: -0.229; viability with camptothecin: 108; call: inactive
TMPRSS11F #1 — log2 vehicle/camptothecin viability: -0.156; viability with camptothecin: 73.3; call: inactive
TMPRSS11F #2 — log2 vehicle/camptothecin viability: 0.119; viability with camptothecin: 64.3; call: inactive
GPC1 #1 — log2 vehicle/camptothecin viability: 0.343; viability with camptothecin: 10.8; call: inactive
GPC1 #2 — log2 vehicle/camptothecin viability: -0.142; viability with camptothecin: 42.6; call: inactive
GPC1 #3 — log2 vehicle/camptothecin viability: 0.147; viability with camptothecin: 65.5; call: inactive
GPC1 #4 — log2 vehicle/camptothecin viability: -0.262; viability with camptothecin: 82.9; call: inactive
MCOLN1 #1 — log2 vehicle/camptothecin viability: -0.173; viability with camptothecin: 85.3; call: inactive
MCOLN1 #2 — log2 vehicle/camptothecin viability: 0.139; viability with camptothecin: 63.5; call: inactive
MCOLN1 #3 — log2 vehicle/camptothecin viability: -0.148; viability with camptothecin: 87.2; call: inactive
MCOLN1 #4 — log2 vehicle/camptothecin viability: -0.101; viability with camptothecin: 69.9; call: inactive
PTTG1IP #1 — log2 vehicle/camptothecin viability: -0.131; viability with camptothecin: 68.8; call: inactive
PTTG1IP #2 — log2 vehicle/camptothecin viability: -0.0585; viability with camptothecin: 89; call: inactive
PTTG1IP #3 — log2 vehicle/camptothecin viability: -0.491; viability with camptothecin: 74.5; call: inactive
PTTG1IP #4 — log2 vehicle/camptothecin viability: -0.0962; viability with camptothecin: 91.5; call: inactive
LHB #1 — log2 vehicle/camptothecin viability: -0.527; viability with camptothecin: 90.1; call: inactive
LHB #2 — log2 vehicle/camptothecin viability: -0.186; viability with camptothecin: 75.7; call: inactive
PPP1R12A #1 — log2 vehicle/camptothecin viability: -0.22; viability with camptothecin: 74.5; call: inactive
PPP1R12A #2 — log2 vehicle/camptothecin viability: -0.286; viability with camptothecin: 76.2; call: inactive
PPP1R12A #3 — log2 vehicle/camptothecin viability: 0.0123; viability with camptothecin: 50.5; call: inactive
PPP1R12A #4 — log2 vehicle/camptothecin viability: -0.259; viability with camptothecin: 90.7; call: inactive

As entered above.
For “log2 vehicle/camptothecin viability”, PTTG1IP #2 reads -0.0585
For “call”, LHB #2 reads inactive
For “log2 vehicle/camptothecin viability”, PPP1R12A #2 has -0.286
Entry for PAQR5 #3 under “log2 vehicle/camptothecin viability”: -0.0824
Under “viability with camptothecin”, CENPB #3 shows 69.4
